{"sequences": {"note": "The chains behind the UniProt entries cited, without tags or fusion partners. Where a name states a change or a piece, a line headed by the entry shows the natural chain unless it says otherwise.", "UniProt P67809": "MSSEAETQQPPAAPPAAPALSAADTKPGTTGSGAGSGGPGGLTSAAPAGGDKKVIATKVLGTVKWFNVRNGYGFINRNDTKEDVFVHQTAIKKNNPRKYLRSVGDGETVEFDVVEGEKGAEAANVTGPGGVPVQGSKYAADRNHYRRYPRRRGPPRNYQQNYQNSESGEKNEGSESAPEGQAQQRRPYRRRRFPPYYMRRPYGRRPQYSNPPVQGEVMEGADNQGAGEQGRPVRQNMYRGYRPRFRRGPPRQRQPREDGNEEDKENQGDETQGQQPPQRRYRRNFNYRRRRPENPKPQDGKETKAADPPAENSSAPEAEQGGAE"}, "source": "patent US20020151063A1", "about": "“Methods for modulating apoptotic cell death” (priority 1996, published 2002)", "key": {"hnRNP D (Homo sapiens)": {"target": "T1, hnRNP D (Homo sapiens) (UniProt Q14103)", "T1 sequence (looked up, limits assumed)": "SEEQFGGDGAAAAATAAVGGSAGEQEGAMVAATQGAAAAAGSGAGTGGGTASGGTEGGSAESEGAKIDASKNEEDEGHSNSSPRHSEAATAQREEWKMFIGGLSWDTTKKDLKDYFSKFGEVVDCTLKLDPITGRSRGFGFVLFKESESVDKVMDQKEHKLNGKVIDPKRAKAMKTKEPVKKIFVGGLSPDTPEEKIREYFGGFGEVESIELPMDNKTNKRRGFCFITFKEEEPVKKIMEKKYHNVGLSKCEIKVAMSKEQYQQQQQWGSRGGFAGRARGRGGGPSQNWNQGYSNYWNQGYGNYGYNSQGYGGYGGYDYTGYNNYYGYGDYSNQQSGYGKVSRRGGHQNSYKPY", "experiment": "binding assay", "conditions": "expression library screen with single-stranded 3x probe; protein in a lysate after overexpression; single-stranded DNA"}, "[1]": {"target": "YB-1 (in cells) (Homo sapiens) (UniProt P67809)", "experiment": "pull-down", "conditions": "PS; SK-Mel-5 cells; free YB-1 reduced after streptavidin pulldown; protein in cells; label: biotin; single-stranded DNA"}, "[2]": {"target": "YB-1 (endogenous, nuclear extract) (UniProt P67809)", "experiment": "EMSA", "conditions": "supershift with anti-YB-1 antibody; protein in an extract; label: 32P; single-stranded DNA"}}, "note": "At least one result comes from cells or an extract, where the contact may be indirect. For part of these data: Protein sequences can lack the tags named with them. For part of these data: The exact form of at least one protein or probe is not confirmed."}
{"sequence": "AGTTAATGATGTCATTATCCAAA [E1 enhancer probe (3x concatamer, single-stranded)]", "values": [{"measurement": "binding result", "setting": "hnRNP D (Homo sapiens)", "result": "binds"}]}
{"sequence": "GAACCTGAATTTGGATGCAGTTCCAGAC [S1 lower-strand decoy (oligo 58)]", "values": [{"measurement": "binding result", "setting": "[1]", "result": "binds"}]}
{"sequence": "GTCTGGAACTGCATCCAAATTCAGGTTC [S1 silencer probe]", "values": [{"measurement": "binding result", "setting": "[2]", "result": "binds"}]}
